# Assay results published in the supplement of paper PMC12067093, “Discovery and optimisation of a covalent ligand for TRIM25 and its application to targeted protein ubiquitination” (Chemical Science, 2025).
# Protein sequences, listed by entry. Tags and fused reporters are not part of them. Lines headed by an entry give the natural chain unless they say otherwise; changes in a name come on top.
# UniProt Q13045: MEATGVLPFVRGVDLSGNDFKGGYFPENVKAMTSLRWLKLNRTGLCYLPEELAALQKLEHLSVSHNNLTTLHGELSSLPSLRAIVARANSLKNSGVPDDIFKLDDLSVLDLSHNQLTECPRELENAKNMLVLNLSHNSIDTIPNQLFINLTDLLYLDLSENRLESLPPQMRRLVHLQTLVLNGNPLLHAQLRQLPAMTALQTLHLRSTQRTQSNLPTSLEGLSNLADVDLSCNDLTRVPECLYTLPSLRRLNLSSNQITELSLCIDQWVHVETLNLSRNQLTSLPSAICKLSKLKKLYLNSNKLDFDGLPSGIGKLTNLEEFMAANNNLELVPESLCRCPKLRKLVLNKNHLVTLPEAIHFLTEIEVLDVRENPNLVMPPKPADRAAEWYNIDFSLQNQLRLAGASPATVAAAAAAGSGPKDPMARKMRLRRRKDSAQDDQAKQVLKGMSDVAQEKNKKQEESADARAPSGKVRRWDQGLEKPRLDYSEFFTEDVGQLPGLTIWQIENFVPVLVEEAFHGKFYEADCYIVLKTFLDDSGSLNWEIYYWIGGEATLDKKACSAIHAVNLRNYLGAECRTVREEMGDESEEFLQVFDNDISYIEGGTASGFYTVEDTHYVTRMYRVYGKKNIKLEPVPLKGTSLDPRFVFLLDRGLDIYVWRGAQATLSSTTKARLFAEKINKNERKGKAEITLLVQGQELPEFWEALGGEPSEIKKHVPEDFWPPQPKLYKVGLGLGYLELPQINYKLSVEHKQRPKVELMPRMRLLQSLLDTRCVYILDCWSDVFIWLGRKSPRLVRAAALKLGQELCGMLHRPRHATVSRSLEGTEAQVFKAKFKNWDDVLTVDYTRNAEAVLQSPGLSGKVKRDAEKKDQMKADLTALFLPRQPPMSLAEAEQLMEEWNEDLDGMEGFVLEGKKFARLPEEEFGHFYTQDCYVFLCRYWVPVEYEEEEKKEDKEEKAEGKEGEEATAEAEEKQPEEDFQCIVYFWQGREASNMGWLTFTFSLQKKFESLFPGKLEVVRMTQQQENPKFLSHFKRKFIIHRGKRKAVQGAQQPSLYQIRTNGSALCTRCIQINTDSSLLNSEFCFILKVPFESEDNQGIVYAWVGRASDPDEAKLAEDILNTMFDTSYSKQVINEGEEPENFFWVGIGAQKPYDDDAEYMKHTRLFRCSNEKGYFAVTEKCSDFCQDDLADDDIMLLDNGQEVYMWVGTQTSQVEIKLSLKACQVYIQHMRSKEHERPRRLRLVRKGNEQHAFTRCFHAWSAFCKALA
# UniProt O75369, whole entry, looked up: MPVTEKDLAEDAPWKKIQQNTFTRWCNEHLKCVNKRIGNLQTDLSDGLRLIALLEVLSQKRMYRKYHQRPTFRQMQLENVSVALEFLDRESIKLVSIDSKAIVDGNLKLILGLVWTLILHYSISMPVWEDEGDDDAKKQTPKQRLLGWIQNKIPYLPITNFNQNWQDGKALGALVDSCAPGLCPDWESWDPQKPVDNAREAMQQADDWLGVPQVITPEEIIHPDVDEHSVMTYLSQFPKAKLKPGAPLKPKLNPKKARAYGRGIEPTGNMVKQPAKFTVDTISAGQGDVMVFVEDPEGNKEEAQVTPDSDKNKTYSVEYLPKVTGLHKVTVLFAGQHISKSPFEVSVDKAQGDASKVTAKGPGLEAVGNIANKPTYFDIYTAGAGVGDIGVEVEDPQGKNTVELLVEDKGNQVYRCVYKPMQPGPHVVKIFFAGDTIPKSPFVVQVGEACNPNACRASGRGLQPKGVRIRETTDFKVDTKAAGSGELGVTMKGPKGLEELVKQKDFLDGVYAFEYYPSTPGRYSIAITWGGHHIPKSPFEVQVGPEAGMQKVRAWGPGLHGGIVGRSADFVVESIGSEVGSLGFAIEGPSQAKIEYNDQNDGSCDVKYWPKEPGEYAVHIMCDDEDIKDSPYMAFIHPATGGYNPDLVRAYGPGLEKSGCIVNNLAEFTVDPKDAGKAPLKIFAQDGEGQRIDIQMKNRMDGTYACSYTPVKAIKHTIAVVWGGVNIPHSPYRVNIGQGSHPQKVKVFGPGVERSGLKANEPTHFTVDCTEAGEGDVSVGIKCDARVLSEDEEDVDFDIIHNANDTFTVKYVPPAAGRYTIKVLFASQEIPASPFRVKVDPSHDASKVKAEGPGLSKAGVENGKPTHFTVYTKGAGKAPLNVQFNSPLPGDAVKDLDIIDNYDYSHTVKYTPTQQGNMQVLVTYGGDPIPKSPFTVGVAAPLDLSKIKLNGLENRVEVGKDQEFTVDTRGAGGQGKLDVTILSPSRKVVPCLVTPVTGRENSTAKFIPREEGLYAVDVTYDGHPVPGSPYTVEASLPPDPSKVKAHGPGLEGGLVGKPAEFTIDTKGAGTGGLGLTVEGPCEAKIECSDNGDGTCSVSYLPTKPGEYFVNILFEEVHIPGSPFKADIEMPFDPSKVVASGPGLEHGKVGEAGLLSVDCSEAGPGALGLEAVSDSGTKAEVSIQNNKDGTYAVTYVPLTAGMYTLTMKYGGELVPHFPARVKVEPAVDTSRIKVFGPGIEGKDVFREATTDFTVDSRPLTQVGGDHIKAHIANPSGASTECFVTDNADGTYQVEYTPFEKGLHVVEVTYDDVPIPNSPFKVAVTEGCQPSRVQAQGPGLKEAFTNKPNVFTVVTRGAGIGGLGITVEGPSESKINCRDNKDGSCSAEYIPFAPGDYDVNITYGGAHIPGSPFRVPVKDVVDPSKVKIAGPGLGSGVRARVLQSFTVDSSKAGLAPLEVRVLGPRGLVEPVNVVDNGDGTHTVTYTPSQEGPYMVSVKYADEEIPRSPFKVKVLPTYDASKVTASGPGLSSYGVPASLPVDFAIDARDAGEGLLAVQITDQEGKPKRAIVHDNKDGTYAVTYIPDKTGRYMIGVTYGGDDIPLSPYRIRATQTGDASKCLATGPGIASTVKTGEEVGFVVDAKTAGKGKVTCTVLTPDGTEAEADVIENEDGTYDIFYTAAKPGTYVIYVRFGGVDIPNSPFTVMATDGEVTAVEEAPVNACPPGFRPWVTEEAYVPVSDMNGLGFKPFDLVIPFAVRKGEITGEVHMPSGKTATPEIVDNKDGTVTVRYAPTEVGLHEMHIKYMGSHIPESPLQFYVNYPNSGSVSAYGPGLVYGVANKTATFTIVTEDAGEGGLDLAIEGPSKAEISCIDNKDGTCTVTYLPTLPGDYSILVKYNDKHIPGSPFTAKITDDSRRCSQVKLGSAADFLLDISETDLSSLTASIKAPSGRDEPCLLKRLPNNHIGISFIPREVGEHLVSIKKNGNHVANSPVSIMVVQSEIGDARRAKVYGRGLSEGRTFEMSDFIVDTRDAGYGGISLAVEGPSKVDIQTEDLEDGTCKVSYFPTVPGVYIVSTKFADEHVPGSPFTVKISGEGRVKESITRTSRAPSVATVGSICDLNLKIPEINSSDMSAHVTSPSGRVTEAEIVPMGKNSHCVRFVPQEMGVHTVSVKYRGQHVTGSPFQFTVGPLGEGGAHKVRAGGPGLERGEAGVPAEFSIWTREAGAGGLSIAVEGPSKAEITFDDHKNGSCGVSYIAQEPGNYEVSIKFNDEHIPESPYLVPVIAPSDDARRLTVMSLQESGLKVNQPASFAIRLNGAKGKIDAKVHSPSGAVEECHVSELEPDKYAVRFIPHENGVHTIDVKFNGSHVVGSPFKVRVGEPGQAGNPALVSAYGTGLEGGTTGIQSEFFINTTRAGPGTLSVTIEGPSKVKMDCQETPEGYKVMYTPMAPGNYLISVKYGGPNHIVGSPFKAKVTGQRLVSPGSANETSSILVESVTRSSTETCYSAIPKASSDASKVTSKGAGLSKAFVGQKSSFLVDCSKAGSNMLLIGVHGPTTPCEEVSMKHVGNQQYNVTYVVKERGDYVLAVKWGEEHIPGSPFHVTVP
# UniProt Q9Y2H6: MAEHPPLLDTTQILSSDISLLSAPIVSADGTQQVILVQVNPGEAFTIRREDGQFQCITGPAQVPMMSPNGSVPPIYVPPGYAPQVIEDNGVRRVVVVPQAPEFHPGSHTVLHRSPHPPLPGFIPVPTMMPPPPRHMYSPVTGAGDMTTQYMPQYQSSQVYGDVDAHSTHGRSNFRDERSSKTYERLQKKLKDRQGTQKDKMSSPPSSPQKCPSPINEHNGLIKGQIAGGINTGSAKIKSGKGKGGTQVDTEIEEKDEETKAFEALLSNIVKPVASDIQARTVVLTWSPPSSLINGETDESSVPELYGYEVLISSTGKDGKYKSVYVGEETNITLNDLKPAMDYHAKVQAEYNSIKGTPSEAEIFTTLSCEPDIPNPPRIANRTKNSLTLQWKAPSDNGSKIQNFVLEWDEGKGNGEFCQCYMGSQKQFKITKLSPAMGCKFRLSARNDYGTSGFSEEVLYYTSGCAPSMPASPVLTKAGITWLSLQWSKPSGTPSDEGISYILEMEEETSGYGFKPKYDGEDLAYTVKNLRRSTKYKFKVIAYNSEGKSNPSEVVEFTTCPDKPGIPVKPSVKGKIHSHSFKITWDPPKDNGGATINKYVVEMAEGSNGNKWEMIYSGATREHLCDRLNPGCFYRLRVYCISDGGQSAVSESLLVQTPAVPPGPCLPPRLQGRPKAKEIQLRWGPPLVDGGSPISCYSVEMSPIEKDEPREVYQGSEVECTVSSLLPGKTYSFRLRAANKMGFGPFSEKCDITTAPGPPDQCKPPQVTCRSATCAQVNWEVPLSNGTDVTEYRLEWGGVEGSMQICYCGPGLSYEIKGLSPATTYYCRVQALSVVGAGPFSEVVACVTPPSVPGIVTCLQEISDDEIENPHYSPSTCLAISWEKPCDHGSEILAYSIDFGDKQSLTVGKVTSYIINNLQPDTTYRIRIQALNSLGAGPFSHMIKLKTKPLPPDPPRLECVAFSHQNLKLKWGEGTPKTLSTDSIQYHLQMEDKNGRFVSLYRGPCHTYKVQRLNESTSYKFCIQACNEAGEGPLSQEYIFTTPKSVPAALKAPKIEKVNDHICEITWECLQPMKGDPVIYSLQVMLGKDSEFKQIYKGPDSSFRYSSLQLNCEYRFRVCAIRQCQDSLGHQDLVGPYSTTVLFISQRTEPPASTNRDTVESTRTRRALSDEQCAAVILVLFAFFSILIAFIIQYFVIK
# UniProt Q9UQC2, whole entry, looked up: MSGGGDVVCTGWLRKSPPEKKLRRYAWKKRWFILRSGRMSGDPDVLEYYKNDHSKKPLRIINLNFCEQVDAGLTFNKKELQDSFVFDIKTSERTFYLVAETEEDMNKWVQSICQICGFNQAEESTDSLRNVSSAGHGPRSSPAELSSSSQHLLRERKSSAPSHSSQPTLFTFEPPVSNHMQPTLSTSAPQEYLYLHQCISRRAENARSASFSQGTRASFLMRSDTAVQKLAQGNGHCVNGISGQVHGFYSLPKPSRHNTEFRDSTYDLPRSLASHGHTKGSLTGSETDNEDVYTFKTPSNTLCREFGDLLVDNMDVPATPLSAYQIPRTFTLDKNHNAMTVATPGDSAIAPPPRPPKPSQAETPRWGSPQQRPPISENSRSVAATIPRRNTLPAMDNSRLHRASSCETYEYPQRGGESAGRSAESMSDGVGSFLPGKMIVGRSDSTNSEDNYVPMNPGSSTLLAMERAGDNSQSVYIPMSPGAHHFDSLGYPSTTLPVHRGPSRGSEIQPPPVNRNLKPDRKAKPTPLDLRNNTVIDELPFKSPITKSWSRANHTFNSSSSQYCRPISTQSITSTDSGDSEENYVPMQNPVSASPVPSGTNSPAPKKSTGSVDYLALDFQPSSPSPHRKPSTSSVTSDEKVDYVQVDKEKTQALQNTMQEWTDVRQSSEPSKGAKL
# UniProt Q9HA64: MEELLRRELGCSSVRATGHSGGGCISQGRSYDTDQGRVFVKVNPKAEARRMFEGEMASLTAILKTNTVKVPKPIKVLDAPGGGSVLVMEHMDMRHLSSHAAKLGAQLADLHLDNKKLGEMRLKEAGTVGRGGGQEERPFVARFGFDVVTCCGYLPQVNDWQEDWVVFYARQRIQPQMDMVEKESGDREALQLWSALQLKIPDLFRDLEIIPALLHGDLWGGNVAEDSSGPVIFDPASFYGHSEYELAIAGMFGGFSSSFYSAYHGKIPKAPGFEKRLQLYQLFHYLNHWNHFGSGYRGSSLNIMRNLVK
# UniProt Q96CP2: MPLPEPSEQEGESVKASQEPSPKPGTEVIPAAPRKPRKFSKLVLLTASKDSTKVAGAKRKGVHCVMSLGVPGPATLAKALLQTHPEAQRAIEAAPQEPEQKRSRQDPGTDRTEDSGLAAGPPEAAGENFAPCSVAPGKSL
# UniProt O95684: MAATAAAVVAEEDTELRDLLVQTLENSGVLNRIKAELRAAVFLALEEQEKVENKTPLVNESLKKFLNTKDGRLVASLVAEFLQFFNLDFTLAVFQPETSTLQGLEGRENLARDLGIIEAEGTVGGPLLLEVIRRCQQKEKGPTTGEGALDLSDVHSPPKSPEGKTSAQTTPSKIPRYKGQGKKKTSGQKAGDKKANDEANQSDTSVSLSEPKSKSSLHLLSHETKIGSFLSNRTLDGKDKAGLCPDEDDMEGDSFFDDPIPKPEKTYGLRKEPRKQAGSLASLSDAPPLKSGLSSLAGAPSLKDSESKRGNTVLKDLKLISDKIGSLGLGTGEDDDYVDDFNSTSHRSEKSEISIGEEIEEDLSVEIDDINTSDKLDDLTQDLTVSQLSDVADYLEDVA
# This is one part of the list.
# Compound: CC1Cc2ccccc2N1C(=O)C1CCCN(C1)C(=O)CCl (mixture of isomers) [TRIM25 ligand 11 (diastereomer mixture)]
# Assay: probe-labelled cysteine peptide fold change vs DMSO (competition) (log2 fold change); higher = less target engagement (more negative = stronger competition)
# Settings: 10 µM; THP-1; incubation time: 4 h
# 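Note: competitive chemoproteomic profiling in live THP-1 cells with an iodoacetamide desthiobiotin (IA-DTB) probe, comparing probe-labelled peptide intensities in compound-treated cells against DMSO-treated controls.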
row,Target,probe-labelled cysteine peptide fold change
1,FSCN1_Q16658_121_LSCFAQTVSPAEK (UniProt Q16658),0.267
2,FN1_P02751_470_FGFCPMAAHEEICTTNEGVMYR (UniProt P02751),0.0472
3,FSCN1_Q16658_80_DGNVTCER (UniProt Q16658),-0.0775
4,FPGS_Q05932_315_SNAALALQLAHCWLQR (UniProt Q05932),-0.152
5,FTO_Q9C0B1_294+308_ISWDIETPGLAIPLHQGDCYFMLDDLNATHQHCVLAGSQPR (UniProt Q9C0B1),-0.257
6,FLII_Q13045_982_EGEEATAEAEEKQPEEDFQCIVYFWQGR (UniProt Q13045),0.157
7,FLNB_O75369_1617_CLATGPGIASTVK (UniProt O75369),-0.000454
8,FNDC3A_Q9Y2H6_625_EHLCDR (UniProt Q9Y2H6),0.0514
9,FRY_Q5TBA9_2494_CDMQILEER (UniProt Q5TBA9),0.00193
10,GAK_O14976_472_VSECGWAAR (UniProt O14976),-0.0728
11,FZD2_Q14332_201_YATLEHPFHCPR (UniProt Q14332),-0.0153
12,FSCN1_Q16658_61_QIWTLEQPPDEAGSAAVCLR (UniProt Q16658),-0.242
13,FLII_Q13045_982_QPEEDFQCIVYFWQGR (UniProt Q13045),0.538
14,FLII_Q13045_1265_CFHAWSAFCK (UniProt Q13045),0.157
15,GAB2_Q9UQC2_237_LAQGNGHCVNGISGQVHGFYSLPK (UniProt Q9UQC2),0.0237
16,FN3KRP_Q9HA64_24_ATGHSGGGCISQGR (UniProt Q9HA64),-0.0578
17,FLYWCH2_Q96CP2_64_GVHCVMSLGVPGPATLAK (UniProt Q96CP2),-0.275
18,FTSJ3_Q8IY81_294_ASEIMVDDEELAQHPATTEDIRVCCQDIR (UniProt Q8IY81),0.186

row,Target,probe-labelled cysteine peptide fold change
1,FLNB_O75369_1868_AEISCIDNK (UniProt O75369),-0.0828
2,FLNB_O75369_1876_DGTCTVTYLPTLPGDYSILVK (UniProt O75369),-0.167
3,FLNB_O75369_416_CVYKPMQPGPHVVK (UniProt O75369),-0.138
4,GADD45GIP1_Q8TAE8_124_EQHIAECMAK (UniProt Q8TAE8),0.324
5,FNBP1_Q96RU3_555_VLATDFDDEFDDEEPLPAIGTCK (UniProt Q96RU3),-0.0784
6,FLII_Q13045_232_TQSNLPTSLEGLSNLADVDLSCNDLTR (UniProt Q13045),-0.118
7,FYCO1_Q9BQS8_719_EGECQQLREEVEQCQQLAEAR (UniProt Q9BQS8),-0.0603
8,FRYL_O94915_1575_VMEHNQGEPLPFPPAGGCWSPLVDYVPETSSPGLPLHR (UniProt O94915),0.201
9,FKBP5_Q13451_107_GEICHLLCKPEYAYGSAGSLPK (UniProt Q13451),-0.00489
10,G3BP1_Q13283_73_VMSQNFTNCHTK (UniProt Q13283),-0.0583
11,FLNB_O75369_1326_VAVTEGCQPSR (UniProt O75369),-0.0217
12,FH_P07954_333_FEALAAHDALVELSGAMNTTACSLMK (UniProt P07954),0.0327
13,FHL2_Q14192_254_CSLSLVGR (UniProt Q14192),-0.0206
14,FHOD1_Q9Y613_373_SLEGGGCPAR (UniProt Q9Y613),0.118
15,GABPA_Q06546_421_LVTECEQK (UniProt Q06546),0.0361
16,FLI1_Q01543_83_ESPVDCSVSK (UniProt Q01543),-0.0642
17,FGFR1OP_O95684-3_133_TITQLECLLSIGALHFK (UniProt O95684),-0.0773
18,FNDC3A_Q9Y2H6_560_SNPSEVVEFTTCPDKPGIPVKPSVK (UniProt Q9Y2H6),-0.143
